Results are given in words; binding and its absence hold for the method and conditions named. Binding can be weak; no strength is given. Tags and fused reporters may be left off the sequences shown.
Target: T1, PRR19 (yeast two-hybrid fusion) (mouse) (UniProt B2RW88)
T1 sequence: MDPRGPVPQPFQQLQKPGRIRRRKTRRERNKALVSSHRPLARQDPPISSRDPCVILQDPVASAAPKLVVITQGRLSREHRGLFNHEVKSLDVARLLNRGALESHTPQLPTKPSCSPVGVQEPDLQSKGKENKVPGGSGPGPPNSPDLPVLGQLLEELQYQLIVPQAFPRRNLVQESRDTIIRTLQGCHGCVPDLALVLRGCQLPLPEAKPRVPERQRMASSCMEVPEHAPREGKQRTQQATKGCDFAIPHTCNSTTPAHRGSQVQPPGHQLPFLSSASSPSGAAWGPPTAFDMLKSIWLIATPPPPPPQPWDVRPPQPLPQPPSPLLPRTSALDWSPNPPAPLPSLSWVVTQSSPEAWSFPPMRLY
Experiment: two-hybrid; pairwise, Y2HGold yeast strain, Gal4-BD and Gal4-AD vectors; growth 2-3 days on (-Leu, -Trp, -His, -Ade) plates

binding: binds
Substance: CNTD1Q, the protein product of Cntd1^Q allele (yeast two-hybrid fusion) (from UniProt Q9D995-3)
